Earlier results as cited in patent US4358458A, “Tertiary imidazolyl alcohols and method for the treatment of generalized and local infections caused by fungi and yeasts” (Nordmark-Werke GmbH, priority 1976, dated 1982).

Settings: (Lit.); cited from earlier work

Clc1ccc(COC(Cn2ccnc2)c2ccc(Cl)cc2Cl)c(Cl)c1.O=[N+]([O-])O (stereo not drawn) [MICONAZOL, 1-[2,4-dichloro-β-(2,4-dichlorobenzyloxy)-phenethyl]imidazole nitrate, reference compound]
LD50 (mice): 578 mg/kg
